Measurements reported in PubChem BioAssay AID2685 (National Center for Advancing Translational Sciences (NCATS), 2010).
Screen size: about 320,000 compounds; about 2,100 (0.66%) were called active. The inconclusive results got no clear call from the source; some entries with a clear call stand among them for comparison. Calls follow the shape of the dose curve; as a rule, active = well fitted inhibition curve with a large enough effect in the signal ratio, with a control signal flat (not every such curve was filed as active); inconclusive = small, poorly fitted or top-dose-only effect, or effect the other way, or a change in a side signal; inactive = flat fitted curve, though single readings scatter; the % refers to the signal ratio. Where the call is inconclusive, the potency comes from a doubtful curve fit.

Assay: qHTS Assay for Lipid Storage Modulators in Drosophila S3 Cells
Details: BODIPY lipid droplet fluorescence, 18-24 h, cells fed with added oleic acid; lipid storage change, negative = inhibition: at 46.1 µM (top of the series) unless noted
Outline: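 Laser-scanning cytometry quantifies lipid droplet accumulation (500–530 nm total intensity; droplet/cell object ratio) in oleic acid-fed (400 uM added) Drosophila S3 cells treated with a concentration series. 20 uM Triacsin C defined 100% inhibition.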
% is scaled to controls: 0 for no effect and ±100 for the full control effect; potency is read from the fitted curve at half-maximal effect.

SMILES	Potency	lipid storage change, negative = inhibition	outcome
CC(C)NC(=O)c1ccc(C(C)C)cc1	inconclusive: 23.1 µM [activator, partial curve]		
CCOc1ccccc1NC(=O)C(c1ccccc1)N1CCN(CC(=O)N2CCOCC2)CC1 (stereo not drawn)		inconclusive: -16.4%	
COc1cc2c(cc1NC(=S)Nc1cccc(C(F)(F)F)c1)oc1ccccc12	inconclusive: 5.8 µM [activator, single point]		
Cc1cc(-n2nc(C)cc2C)n2ncc(-c3ccccc3)c2n1	inconclusive: 0.58 µM [activator, partial curve]		
CCOC(=O)c1c(C)nc(-c2ccccc2)nc1N			inactive [at 46.1 µM]
O=C(NCc1ccco1)C(=O)NCC1OCCN1C(=O)c1ccc(Cl)cc1 (stereo not drawn)		inconclusive: 0.927%	
COc1cccc(C(=O)Nc2ccc(NC(=O)c3ccco3)cn2)c1	inconclusive: 0.259 µM [falling, full curve, poor fit]		
C=CCN(CC=C)Cc1ccc(C(=O)OC)o1		inconclusive: 13.4%	
NS(=O)(=O)c1ccc(CCNC(=O)COC(=O)C2CCC2)cc1		inconclusive: -19.5%	
COc1ccc(-c2c(C)oc3c(CN4CCOCC4)c(O)ccc3c2=O)cc1		inconclusive: 26.6%	
COc1ccc2c(c1OC)C(=O)OC2Nc1ncc(Br)cc1Br (stereo not drawn)	inconclusive: 0.58 µM [falling, full curve]		
CCOc1ccc(/C(CCC(=O)O)=N/NC(=S)NCCc2ccccc2)cc1		inconclusive: 22.8%	
COc1ccc(-c2csc(Nc3ccc(S(N)(=O)=O)cc3)n2)cc1	inconclusive: 14.6 µM [activator, partial curve]		
CCN(CCCNC(=O)CCn1c(=O)[nH]c2ccsc2c1=O)c1ccccc1		inconclusive: -9.92%	
CC(=O)c1ccc(OCCCC(=O)NC2CCCCC2C)cc1 (stereo not drawn)	inconclusive: 18.4 µM [activator, single point]		
COCC(=O)N(Cc1cc2cc(OC)ccc2[nH]c1=O)c1ccc(C)cc1		inconclusive: 23.4%	
Cc1ccc(-c2nc(CN(CC3CCC3)CC3CCCO3)c(C)o2)s1 (stereo not drawn)		inconclusive: -7.43%	
COc1ccc(-c2[nH]ncc2CN(C)Cc2nonc2C)c(OC)c1		inconclusive: 14.3%	
CN(C)S(=O)(=O)c1cccc(COC(=O)CNC(=O)c2ccc(Br)o2)c1		inconclusive: 2.74%	
COC(=O)C1CCN(C(=O)c2ccc(Cl)c(S(=O)(=O)NCc3cccnc3)c2)CC1			inactive [at 46.1 µM]
COC(=O)c1cc2oc3ccccc3c2n1CC(=O)Nc1ccccc1OC		inconclusive: -6.16%	
COc1cc(S(=O)(=O)N(C)C)ccc1Br	inconclusive: 0.259 µM [falling, full curve, poor fit]		
CC(=O)NNC(=S)NC(=O)C(c1ccccc1)c1ccccc1	inconclusive: 0.0517 µM [falling, full curve, poor fit]		
COc1cccc(C(=O)OCC(=O)NC(=O)NC2CCCC2)c1O		inconclusive: 2.16%	

Some of the entries so far, with bars between the fields.
SMILES | Potency | lipid storage change, negative = inhibition | outcome
COc1cc2c(cc1NC(=S)Nc1cccc(C(F)(F)F)c1)oc1ccccc12 | inconclusive: 5.8 µM [activator, single point] |  | 
Cc1cc(-n2nc(C)cc2C)n2ncc(-c3ccccc3)c2n1 | inconclusive: 0.58 µM [activator, partial curve] |  | 
CCOC(=O)c1c(C)nc(-c2ccccc2)nc1N |  |  | inactive [at 46.1 µM]
O=C(NCc1ccco1)C(=O)NCC1OCCN1C(=O)c1ccc(Cl)cc1 (stereo not drawn) |  | inconclusive: 0.927% | 
COc1cccc(C(=O)Nc2ccc(NC(=O)c3ccco3)cn2)c1 | inconclusive: 0.259 µM [falling, full curve, poor fit] |  | 
C=CCN(CC=C)Cc1ccc(C(=O)OC)o1 |  | inconclusive: 13.4% | 
NS(=O)(=O)c1ccc(CCNC(=O)COC(=O)C2CCC2)cc1 |  | inconclusive: -19.5% | 
COc1ccc(-c2c(C)oc3c(CN4CCOCC4)c(O)ccc3c2=O)cc1 |  | inconclusive: 26.6% | 
COc1ccc2c(c1OC)C(=O)OC2Nc1ncc(Br)cc1Br (stereo not drawn) | inconclusive: 0.58 µM [falling, full curve] |  | 
CCOc1ccc(/C(CCC(=O)O)=N/NC(=S)NCCc2ccccc2)cc1 |  | inconclusive: 22.8% | 

Next structures:

SMILES	Potency	lipid storage change, negative = inhibition	outcome
O=C(Nc1ccc(S(=O)(=O)Nc2nccs2)cc1)c1cccc(F)c1		inconclusive: 56.6%	
O=C(NCCN1CCOCC1)c1ccc(/C=C2\Sc3ccccc3N(Cc3ccccc3F)C2=O)cc1		inconclusive: 125%	
COc1ccc(C(CNC(=O)CSc2ccccc2C)N(C)C)cc1 (stereo not drawn)	inconclusive: 6.51 µM [falling, single point]		
CCCCCn1c(=O)[nH]c2cc(C(=O)NCCN3CCC(C)CC3)ccc2c1=O		inconclusive: 30.5%	
COc1ccc(N(CC(=O)N/N=C/c2cccs2)S(=O)(=O)c2ccc(OC)c(OC)c2)cc1		inconclusive: -6.46%	
Cc1ccc2nc(SC(C(=O)Nc3ccc(F)cc3)c3ccccc3)[nH]c2c1 (stereo not drawn)	inconclusive: 20.6 µM [falling, single point]		
CCOc1ccccc1CNC(=O)CN1C(=O)CSc2ccc(S(=O)(=O)N3CCOCC3)cc21		inconclusive: -1.07%	
CC1CN(C(=O)c2cccc(Oc3ccccc3)c2)CC(C)O1 (stereo not drawn)		inconclusive: 213%	
Cn1c(CCN2CCOCC2)nc2cc(NC(=O)c3cccs3)ccc21		inconclusive: -13.9%	
CC(=O)c1cc(C#N)c(N2CC(C)OC(C)C2)nc1C (stereo not drawn)		inconclusive: 2.19%	
C/C(=N\OCC(=O)OCC(=O)Nc1cc(S(C)(=O)=O)ccc1Cl)c1ccc2c(c1)OCO2	inconclusive: 29.1 µM [activator, single point]		
Cc1ccc(NC2CCCN(C(=O)c3ccc4nccnc4c3)C2)cc1C (stereo not drawn)		inconclusive: 35.7%	
CC(C)C(NC(=O)c1ccco1)C(=O)OCc1cc([N+](=O)[O-])cc2c1OCOC2 (stereo not drawn)		inconclusive: -35.3%	
CCOC(=O)CNc1nc2ccccc2n2c(C)nnc12		inconclusive: 5.82%	
COc1cccc(/C=N/n2c(COc3ccccc3)n[nH]c2=S)c1OC	inconclusive: 0.461 µM [falling, single point]		
Cc1ccc(NC(=O)[C@H](NC(=O)[C@@H]2Cc3ccccc3CN2)c2ccccc2)c(C)c1	inconclusive: 14.6 µM [activator, partial curve]		
COc1ccc(CCNC(=O)c2cc3sc(Cl)cc3n2C)cc1OC	inconclusive: 29.1 µM [falling, single point]		
COc1ccc(Nc2nc3c(C)cccn3c(=O)c2C=NCc2ccccc2)cc1		inconclusive: -44.9%	
C/C(CC(=O)Nc1cc(Cl)ccc1C)=N\NC(=O)C(=O)N1CCCC1	inconclusive: 0.651 µM [rising, full curve]		
CCC(=O)N(Cc1cc2ccc(C)cc2[nH]c1=O)c1ccccc1OC		inconclusive: 31.3% [activator]	
C/C(=N\NC(=O)CCc1c[nH]c2ccccc12)c1ccc([N+](=O)[O-])cc1	inconclusive: 0.651 µM [cytotoxic, full curve]		
Cc1ccc(C)c(N2CCN(C(=O)C(Cc3ccccc3)n3cccc3)CC2)c1 (stereo not drawn)	inconclusive: 20.6 µM [activator, single point]		
O=C(COc1ccc(C2SCCS2)cc1)Nc1ccc(Cl)cc1		inconclusive: -16.5%	
Cc1nnc(NCc2ccccc2)c2ccccc12	inconclusive: 6.51 µM [activator, single point]		
